Results published in paper PMC4150762, “The DEAD-box helicase Ded1 from yeast is an mRNP cap-associated protein that shuttles between the cytoplasm and nucleus” (Nucleic Acids Research, 2014).
These are yes or no findings as the source states them, for the method shown. For some assays here: In cells and extracts the contact can be indirect. Some results given as binding are weak or reduced against the parent protein; the word gives no strength. For some assays here: Sequences can lack the tags named with a protein.

By UniProt entry, the sequences of proteins in these tests, tags left out.
UniProt P06634: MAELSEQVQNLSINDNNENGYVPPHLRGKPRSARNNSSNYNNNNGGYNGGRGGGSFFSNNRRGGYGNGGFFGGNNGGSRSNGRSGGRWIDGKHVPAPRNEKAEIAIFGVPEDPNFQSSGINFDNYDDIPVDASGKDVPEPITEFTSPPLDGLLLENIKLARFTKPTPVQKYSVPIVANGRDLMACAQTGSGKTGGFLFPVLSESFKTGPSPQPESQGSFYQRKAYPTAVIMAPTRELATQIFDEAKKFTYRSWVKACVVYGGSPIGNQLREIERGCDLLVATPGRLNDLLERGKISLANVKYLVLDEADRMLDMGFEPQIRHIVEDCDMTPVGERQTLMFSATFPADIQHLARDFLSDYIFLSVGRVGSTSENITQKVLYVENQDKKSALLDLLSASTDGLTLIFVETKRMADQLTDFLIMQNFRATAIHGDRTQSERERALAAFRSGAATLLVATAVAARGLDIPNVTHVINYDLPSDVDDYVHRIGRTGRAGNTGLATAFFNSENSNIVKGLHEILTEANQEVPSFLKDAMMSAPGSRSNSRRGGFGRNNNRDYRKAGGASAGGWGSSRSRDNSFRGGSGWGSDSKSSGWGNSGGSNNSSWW
UniProt P04147: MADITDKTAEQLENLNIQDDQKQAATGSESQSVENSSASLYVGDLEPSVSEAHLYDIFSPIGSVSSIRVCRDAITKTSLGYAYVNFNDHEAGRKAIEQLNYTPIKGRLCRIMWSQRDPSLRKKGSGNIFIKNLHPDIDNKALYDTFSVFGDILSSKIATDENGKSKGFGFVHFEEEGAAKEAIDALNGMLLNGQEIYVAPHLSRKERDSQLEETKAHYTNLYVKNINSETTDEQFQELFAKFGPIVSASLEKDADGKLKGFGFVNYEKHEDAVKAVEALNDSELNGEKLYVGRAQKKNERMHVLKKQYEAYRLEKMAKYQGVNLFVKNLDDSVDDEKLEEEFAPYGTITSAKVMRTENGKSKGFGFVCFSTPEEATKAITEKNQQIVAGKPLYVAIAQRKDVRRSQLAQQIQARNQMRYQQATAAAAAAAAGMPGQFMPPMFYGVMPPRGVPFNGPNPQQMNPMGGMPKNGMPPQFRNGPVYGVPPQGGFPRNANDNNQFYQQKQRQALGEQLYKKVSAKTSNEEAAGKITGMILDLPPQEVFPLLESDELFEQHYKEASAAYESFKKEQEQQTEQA

Experiments:
[1] = target: Ded1 (S. cerevisiae (endogenous in BY4742)) (UniProt P06634); assay: co-IP; Ded1-IgG crosslinked to protein A-Sepharose beads incubated with yeast extracts 1–2 h at 4°C, generally with 1 μg/ml RNase A; washed with PBS, eluted with glycine pH 2.5; western blot; pre-immune serum as control
[2] = target: T1, eIF4E with an amino-terminal His6 tag (S. cerevisiae) (UniProt P07260); assay: pull-down; 7-methyl-GTP Sepharose beads loaded with 5 μg purified eIF4E or Cbp20, 5 μg of the purified proteins added with 50 U RNase I, 90 min on ice, TpB buffer (20 mM HEPES pH 7.9, 100 mM KCl, 2 mM MgCl2, 2 mM DTT), eluted with 1 mM 7-methyl-GTP; Coomassie-stained SDS PAGE; both purified
T1 sequence: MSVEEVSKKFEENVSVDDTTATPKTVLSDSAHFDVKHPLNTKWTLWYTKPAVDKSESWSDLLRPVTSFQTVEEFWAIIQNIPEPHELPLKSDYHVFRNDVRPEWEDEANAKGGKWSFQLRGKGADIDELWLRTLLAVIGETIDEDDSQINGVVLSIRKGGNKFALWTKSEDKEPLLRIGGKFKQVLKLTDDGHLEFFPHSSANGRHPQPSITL

[3] = target: T2, MalE-Cbp80 (S. cerevisiae) (UniProt P34160); assay: pull-down; MalE-Cbp80 bound to amylose resin, incubated with purified proteins, eluted with 10 mM maltose; western blot with IgG against Ded1, Cbp80 and the His6 tag of Cbp20; both purified
T2 sequence: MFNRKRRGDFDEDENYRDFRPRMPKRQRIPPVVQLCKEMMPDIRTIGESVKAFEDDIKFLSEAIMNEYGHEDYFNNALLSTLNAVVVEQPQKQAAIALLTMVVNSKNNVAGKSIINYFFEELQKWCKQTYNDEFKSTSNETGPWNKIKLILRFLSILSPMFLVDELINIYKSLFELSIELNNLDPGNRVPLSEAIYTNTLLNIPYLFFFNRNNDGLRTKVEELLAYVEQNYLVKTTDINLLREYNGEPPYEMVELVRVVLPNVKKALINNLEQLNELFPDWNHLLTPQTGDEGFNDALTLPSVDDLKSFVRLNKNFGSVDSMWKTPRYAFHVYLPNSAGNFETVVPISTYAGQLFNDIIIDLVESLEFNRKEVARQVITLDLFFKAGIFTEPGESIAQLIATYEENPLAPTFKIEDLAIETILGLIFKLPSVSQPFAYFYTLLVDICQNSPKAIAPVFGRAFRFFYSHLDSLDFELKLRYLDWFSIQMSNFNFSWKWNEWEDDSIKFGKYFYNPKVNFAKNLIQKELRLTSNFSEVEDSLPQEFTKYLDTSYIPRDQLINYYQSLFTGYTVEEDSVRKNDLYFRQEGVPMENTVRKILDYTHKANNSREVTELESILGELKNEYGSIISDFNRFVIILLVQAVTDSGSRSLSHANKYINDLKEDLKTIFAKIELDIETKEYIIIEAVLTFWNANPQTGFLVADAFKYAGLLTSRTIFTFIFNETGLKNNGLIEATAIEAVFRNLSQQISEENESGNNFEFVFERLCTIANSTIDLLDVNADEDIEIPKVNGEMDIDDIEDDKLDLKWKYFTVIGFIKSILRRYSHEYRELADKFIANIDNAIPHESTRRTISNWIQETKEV

[4] = target: T3, His6-Cbp20 (S. cerevisiae) (UniProt Q08920); assay: pull-down; 7-methyl-GTP Sepharose beads loaded with 5 μg purified eIF4E or Cbp20, 5 μg of the purified proteins added with 50 U RNase I, 90 min on ice, TpB buffer (20 mM HEPES pH 7.9, 100 mM KCl, 2 mM MgCl2, 2 mM DTT), eluted with 1 mM 7-methyl-GTP; Coomassie-stained SDS PAGE; both purified
T3 sequence: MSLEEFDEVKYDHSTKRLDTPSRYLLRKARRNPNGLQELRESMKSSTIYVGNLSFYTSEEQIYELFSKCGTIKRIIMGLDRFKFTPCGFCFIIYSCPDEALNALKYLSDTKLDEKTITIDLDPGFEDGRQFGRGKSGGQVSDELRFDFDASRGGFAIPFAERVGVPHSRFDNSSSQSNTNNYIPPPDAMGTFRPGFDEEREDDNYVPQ

[5] = target: Ded1 (S. cerevisiae (endogenous in BY4742)), P06634; assay: co-IP; Ded1-IgG crosslinked to protein A-Sepharose beads incubated with yeast extracts 1–2 h at 4°C, generally with 1 μg/ml RNase A; washed with PBS, eluted with glycine pH 2.5; western blot; pre-immune serum as control; settings: remark: other sources report otherwise

With Pab1 (from UniProt P04147 1-577) the binding [1] was “binds”.

With “Ded1-His6 (from UniProt P06634 1-604) (enzyme; other documents disagree on this pair)” the binding [2] was “binds”.

In the case of “Ded1-His6 (from UniProt P06634 1-604) (enzyme)”, the binding [3] is reported as “binds” and the binding [4] is reported as “binds weakly”.

B1: eIF4E, P07260 1-213 (protein)
chain: T1 sequence
In the case of B1, the binding [5] is reported as “binds”.

B2: eIF4G1 (protein, UniProt P39935 1-952)
chain: MTDETAHPTQSASKQESAALKQTGDDQQESQQQRGYTNYNNGSNYTQKKPYNSNRPHQQRGGKFGPNRYNNRGNYNGGGSFRGGHMGANSSNVPWTGYYNNYPVYYQPQQMAAAGSAPANPIPVEEKSPVPTKIEITTKSGEHLDLKEQHKAKLQSQERSTVSPQPESKLKETSDSTSTSTPTPTPSTNDSKASSEENISEAEKTRRNFIEQVKLRKAALEKKRKEQLEGSSGNNNIPMKTTPENVEEKGSDKPEVTEKTKPAEEKSAEPEVKQETPAEEGEQGEKGQIKEESTPKVLTFAERLKLKKQQKEREEKTEGKENKEVPVQEETKSAIESAPVPPSEQVKEETEVAETEQSNIDESATTPAIPTKSDEAEAEVEAEAGDAGTKIGLEAEIETTTDETDDGTNTVSHILNVLKDATPIEDVFSFNYPEGIEGPDIKYKKEHVKYTYGPTFLLQFKDKLNVKADAEWVQSTASKIVIPPGMGRGNRSRDSGRFGNNSSRGHDFRNTSVRNMDDRANSRTSSKRRSKRMNDDRRSNRSYTSRRDRERGSYRNEEKREDDKPKEEVAPLVPSANRWVPKFKSKKTEKKLAPDGKTELLDKDEVERKMKSLLNKLTLEMFDAISSEILAIANISVWETNGETLKAVIEQIFLKACDEPHWSSMYAQLCGKVVKELNPDITDETNEGKTGPKLVLHYLVARCHAEFDKGWTDKLPTNEDGTPLEPEMMSEEYYAAASAKRRGLGLVRFIGFLYRLNLLTGKMMFECFRRLMKDLTDSPSEETLESVVELLNTVGEQFETDSFRTGQATLEGSQLLDSLFGILDNIIQTAKISSRIKFKLIDIKELRHDKNWNSDKKDNGPKTIQQIHEEEERQRQLKNNSRSNSRRTNNSSNRHSFRRDAPPASKDSFITTRTYSQRNSQRAPPPKEEPAAPTSTATNMFSALMGESDDEE
With B2 the binding [1] was “binds”.

B3: His6-Cbp20 (natural protein, S. cerevisiae, UniProt Q08920 1-208, looked up)
chain: T3 sequence
notes: Cbp20 of S. cerevisiae subcloned from pRSETC20 into the NdeI-BamHI sites of pET19b; Printed name His6-Cbp20; also called Cpb20; source: E. coli (pET19b), purified on nickel-agarose
B3 was tested, and the binding [3] was “binds”.

B4: Cbp20 with an amino-terminal HA tag (protein, UniProt Q08920 1-208)
chain: T3 sequence
For B4, the binding [1] was “binds”.

B5: Cbp80 (protein, UniProt P34160 1-861)
chain: T2 sequence
B5 was tested, and the binding [1] was “binds”.

B6: GST-NAB2-HIS6 (natural protein, S. cerevisiae, UniProt P32505 1-525, looked up)
chain: MSQEQYTENLKVIVAEKLAGIPNFNEDIKYVAEYIVLLIVNGGTVESVVDELASLFDSVSRDTLANVVQTAFFALEALQQGESAENIVSKIRMMNAQSLGQSDIAQQQQQQQQQQQPDIAQQQPQQQPQQQPQQQPQQQPQQQPQQQPQQQPQQQPQLQPLQPQLGTQNAMQTDAPATPSPISAFSGVVNAAAPPQFAPVDNSQRFTQRGGGAVGKNRRGGRGGNRGGRNNNSTRFNPLAKALGMAGESNMNFTPTKKEGRCRLFPHCPLGRSCPHAHPTKVCNEYPNCPKPPGTCEFLHPNEDEELMKEMERTREEFQKRKADLLAAKRKPVQTGIVLCKFGALCSNPSCPFGHPTPANEDAKVIDLMWCDKNLTCDNPECRKAHSSLSKIKEVKPISQKKAAPPPVEKSLEQCKFGTHCTNKRCKYRHARSHIMCREGANCTRIDCLFGHPINEDCRFGVNCKNIYCLFRHPPGRVLPEKKGAAPNSNVPTNERPFALPENAIIENAPPQTSFTHQEQDTEMN
For B6, the binding [1] was “binds”.

B7: eIF4G2 (protein, UniProt P39936 1-914)
chain: MTDQRGPPPPHPQQANGYKKFPPHDNQYSGANNSQPNNHYNENLYSAREPHNNKQYQSKNGKYGTNKYNNRNNSQGNAQYYNNRFNNGYRLNNNDYNPAMLPGMQWPANYYAPQMYYIPQQMVPVASPPYTHQPLNTNPEPPSTPKTTKIEITTKTGERLNLKKFHEEKKASKGEEKNDGVEQKSKSGTPFEKEATPVLPANEAVKDTLTETSNEKSTSEAENTKRLFLEQVRLRKAAMERKKNGLISETEKKQETSNHDNTDTTKPNSVIESEPIKEAPKPTGEANEVVIDGKSGASVKTPQHVTGSVTKSVTFNEPENESSSQDVDELVKDDDTTEISDTTGGKTVNKSDDETINSVITTEENTVKETEPSTSDIEMPTVSQLLETLGKAQPISDIYEFAYPENVERPDIKYKKPSVKYTYGPTFLLQFKDKLKFRPDPAWVEAVSSKIVIPPHIARNKPKDSGRFGGDFRSPSMRGMDHTSSSRVSSKRRSKRMGDDRRSNRGYTSRKDREKAAEKAEEQAPKEEIAPLVPSANRWIPKSRVKKTEKKLAPDGKTELFDKEEVERKMKSLLNKLTLEMFDSISSEILDIANQSKWEDDGETLKIVIEQIFHKACDEPHWSSMYAQLCGKVVKDLDPNIKDKENEGKNGPKLVLHYLVARCHEEFEKGWADKLPAGEDGNPLEPEMMSDEYYIAAAAKRRGLGLVRFIGYLYCLNLLTGKMMFECFRRLMKDLNNDPSEETLESVIELLNTVGEQFEHDKFVTPQATLEGSVLLDNLFMLLQHIIDGGTISNRIKFKLIDVKELREIKHWNSAKKDAGPKTIQQIHQEEEQLRQKKNSQRSNSRFNNHNQSNSNRYSSNRRNMQNTQRDSFASTKTGSFRNNQRNARKVEEVSQAPRANMFDALMNNDGDSD
B7 was tested, and the binding [1] was “binds weakly”.
